Results taken from PubChem BioAssay AID1508600 (Functional Genomics Laboratory (NCATS/FGL), 2020).
Out of some 53,000 sequences screened, about 3,700 (7%) were called active.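 Rule for the calls: active = gene knockdowns whose robust z-score for IL-1 alpha signal is at least 2 or at most -2, so actives lie on both sides; inactive = the rest.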 The list shows a part of the results.

Assay: Components of the Cytosolic LPS Sensing Pathway: Gene Identification via Genome-wide siRNA Screen;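 note: robust z of the log signal after scaling to non-targeting control siRNA wells of the plate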
Details: RAW264.7 macrophages, IL-1a HTRF, actives lie on both sides, screened at 100 nM (by protocol), cells primed 5 h with Pam3CSK4 first
In short: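 Mouse macrophage line RAW264.7 is transfected with siRNA (100 nM final), grown 48h, primed with TLR ligand Pam3CSK4 5 h and given intracellular LipidA 24 h. IL-1a in supernatant is read by HTRF and viability by luminescence.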

Row | Sequence | z-score
1 | GCUGAAAUCAGAAGCUAACTT against Casc3 | inactive: -0.468
2 | GCCGUCUUGUGUGUAUCAATT against Olfr1342 | inactive: -0.186
3 | UUCACUUUUUCACUGGAAUTT against Olfr1228 | inactive: -0.264
4 | CGGCAGAUACUGAUACUGCTT against Actn1 | inactive: 1.58
5 | GGAACCUGUUUGUUUAUCATT against Adap2 | inactive: 1.18
6 | GGGAGAUGUUUGUUUUCAATT against Mmp16 | active: 3.52
7 | GGGACGACCAUAUUUAUUUTT against Psma2 | inactive: -1.58
8 | GGGAAAUUGGUGCUACAUGTT against Eln | inactive: 0.272
9 | GGGUCAUUGAUAUCUUAAGTT against Bcl3 | inactive: 0.594
10 | GCUCAAACAGAUACACGGATT against Ap2a2 | inactive: -0.346
11 | GGCUGAGAAAGAAAUUAGGTT against Naip3 | inactive: -0.129
12 | GGAUCAUACCAUACUGGCCTT against Tppp | inactive: 0.0222
13 | GCUGAAACCCUUCGUACAGTT against Prl8a8 | inactive: 0.391
14 | GAGGUUUAUUGUAAUGGCUTT against Olfr1271 | inactive: 0.177
15 | GCUGAUGCUCUUAAGCUAUTT against Pelp1 | inactive: 0.143
16 | GCCCAUGUAUCCAAAAGAATT against Cnmd | inactive: -1.59
17 | AGAACAGCUACUUUCUGACTT against Cebpe | inactive: 0.606
18 | CCUCGUGUUAUGCAUGGAATT against Kitl | inactive: -0.0574
19 | GGAUCCUAAGGUCAUGAUCTT against Imp4 | inactive: -0.226
20 | GACUGGGUAACCCAUCCCUTT against Srd5a1 | inactive: -0.203
21 | GGCUCAGUUUACAAACCUGTT against Mbd6 | inactive: -0.969
22 | GGUUUUCAAAAGUGGAGAATT against Ubr1 | inactive: -0.362

Random excerpt: 3 records from the list
Row | Sequence | z-score
8 | GGGAAAUUGGUGCUACAUGTT against Eln | inactive: 0.272
19 | GGAUCCUAAGGUCAUGAUCTT against Imp4 | inactive: -0.226
13 | GCUGAAACCCUUCGUACAGTT against Prl8a8 | inactive: 0.391

Remaining list, next part:

Row | Sequence | z-score
23 | CCUGAUCUUAAACAAAGAATT against 2610507B11Rik | inactive: -0.742
24 | GGUUUUUGUCCCAUCUUGGTT against Zc3h12d | inactive: 0.228
25 | GCAGGACAAAUUGGUUGUGTT against Olfr457 | inactive: -0.342
26 | GGUUUCAUUUGGAUUUGCATT against Glyr1 | inactive: 0.491
27 | GGCAAUAGGCAAUGGAAAATT against Vmn2r30 | inactive: -0.751
28 | CGGGAUCUUAGAAGAGCAATT against Ptpre | active: 2.6
29 | GGCAGAGACAAAGAAACUUTT against Trap1 | inactive: -0.0864
30 | UGUGACUAUUGUUACUGUGTT against Olfr1512 | inactive: -1.06
31 | GGAUUCAGCAGCUUCAGAATT against Rex1bd | inactive: 0.221
32 | GAAUUACACACAGGCCUGATT against Olfr1048 | inactive: 0.306
33 | GCCUAACCUGCAUCAGUCATT against Olfr689 | inactive: -1.03
34 | CCCGUCCUCUCAAAAACUATT against Bcl2l14 | inactive: -1.6
35 | GCUAUAGGGACCUCUGUCATT against Cdh5 | active: -2.72
36 | GCAACCGAAUUUUACCUCUTT against Olfr820 | inactive: -0.119
37 | CGAUGCAAAAAGAAUAGACTT against Mark1 | inactive: 0.673
38 | GCACGAGUAUGUUUGACAUTT against Limch1 | inactive: 0.379
39 | GGUGAGGACCAAAAGCUGGTT against Plcd4 | inactive: -1.16
40 | GGAUCACUAUUGCUCCCAUTT against 4930432K21Rik | inactive: -0.752
41 | GCUAUCGGCGUGAGUAACCTT against Gk2 | inactive: -0.294
42 | GGAGAUUUCUUCAUCUUUUTT against Tango6 | inactive: -0.934
43 | GGAAUAGCAUAAACACAGUTT against Epm2aip1 | inactive: -1.28
44 | GGGAAACAGCAAAAUGAAATT against Bcas1 | inactive: -0.677

Row | Sequence | z-score
45 | GUACUAGCUAAUUGGGCCATT against Speer4b | inactive: 0.651
46 | CCCAGAAGGAAUGGCUAAATT against H2ap | inactive: -0.757
47 | CCAAGAUAGUCCCUAUCCCTT against Scamp3 | inactive: 0.346
48 | GGAAAUUGUUUGAGAGGUATT against Edn3 | inactive: -1.89
49 | GGGCAUGGCCUUUACACUUTT against Me3 | inactive: -0.842
50 | GGAGAAGUUCAAAGUGAGGTT against B3gnt3 | inactive: -1.51
51 | GGAAAAAAUCAAGAACAUCTT against Tmc2 | inactive: -0.556
52 | CCUAUGCUUUUUUGUAAGATT against Il13ra2 | inactive: 0.126
53 | GGUCUUCAUACCUGUUCUATT against Zik1 | inactive: 1.33
54 | GGAAUAUUCACAGUCCGAGTT against Zfand3 | active: -2.18
55 | GGUAAAUACAGCAGUCCAGTT against Crls1 | inactive: -0.119
56 | GGCUUUUGAAGCCAUCAAGTT against Mrpl57 | inactive: -1.2
57 | GCACCCUCUUAUGAAUUUATT against Tstd2 | inactive: 0.873
58 | GGAAACUCGUACUUUAUCATT against Igf2r | inactive: 0.266
59 | GGCACUGAAUUCUGUUGCUTT against Slc22a30 | inactive: 0.224
60 | GCUUCCUACCAUGAUGGUCTT against Otol1 | active: 2.13
61 | GGAACAUCUAUUUGUCAUGTT against Olfr310 | inactive: -0.796
62 | CCACUGUUAUCAAGAUCCCTT against Olfr1176 | inactive: 1.88
63 | CCGCAUGUUUGGAAAGGAUTT against Cabp4 | inactive: -0.484
64 | GCUUGGGUUCAGUGUGAAGTT against H2-D1 | inactive: 0.362
65 | GGAUUCUGCCCAAUGAGGATT against Inpp5d | inactive: 0.675
66 | GGGUAUGUGAGUUGGAAGATT against Inpp4a | inactive: -0.748

Row | Sequence | z-score
67 | GGUGUUGUUGCUGAUACCUTT against Rbms3 | inactive: -0.794
68 | GGUAGUGGUACACCUUAAGTT against Ctsc | inactive: -0.481
69 | CGAAAAGCCUCAUUUCAUCTT against Hexim1 | inactive: 0.544
70 | GGAGCAUAUAUAGAAUUAGTT against Mrps22 | active: 3.01
71 | GGAUCCACUGCUUUCAAGUTT against Alg9 | inactive: 1.19
72 | GGCCUUGUAGGAAGCAUUGTT against Slc37a4 | inactive: -0.0497
73 | GCUAAGACACGAUAAACUUTT against Yes1 | inactive: 1.34
74 | CCAUAUGUCACUGCACUUATT against Vwc2 | inactive: 0.51
75 | ACCGAAAAUCUUCAGUACUTT against Gm3696 | inactive: -0.382
76 | GGGCAUUCUAUUAAACAUGTT against Fam53a | inactive: 1.33
77 | CCGGCAUUUACCAUAAUAATT against Mcm2 | inactive: 0.462
78 | GGAGAGUCCAGUUUCCAUUTT against Rnf113a1 | inactive: 1.44
79 | GCGAACAACAAUGCUUAAATT against Mga | inactive: 0.0678
80 | GGGACUCCCUACAUUAAUCTT against Hddc3 | inactive: -0.659
81 | ACAUGUCCUCUGUGCAUAUTT against Cyp2d12 | inactive: 0.1
82 | GCAAAAAUGGAAGUAUCUGTT against Ube2dnl1 | inactive: 0.286
83 | GGAAUUAACAGAGAAGAAATT against Rgs13 | inactive: -0.848
84 | GGUGUAUGUCACCCUGACCTT against Sag | inactive: -0.617
85 | GGCCCUCCUCAAGACUCAUTT against Flywch2 | inactive: 0.0808
86 | GGCAGUUUGAGAUUGUGUCTT against Thbs2 | inactive: -0.00379
87 | GGAGGUACAUCAUCUACAATT against Tmem268 | inactive: -0.416
88 | GGAUAGCUUGUGUAGACACTT against Olfr263 | inactive: -0.571

Row | Sequence | z-score
89 | GACUAGAACAACAGAAAGUTT against Vax2 | inactive: 0.0607
90 | GGUUUUGAGCCUCAAAAAATT against Col6a2 | inactive: -0.0556
91 | CCACAUGUUCAGUUCUAAATT against Ddhd1 | inactive: 0.955
92 | GGAAAGUUGAUUCUUGUGUTT against Bmpr1a | inactive: -0.151
93 | GCGGGACUUUAUCUCAUCCTT against Mfsd4b1 | inactive: -0.815
94 | GGAAUAGAAGCACUGUGUGTT against Brs3 | inactive: -1.35
95 | GGAAGAGAUAAUGAACUUCTT against Dspp | inactive: 1.57
96 | GGCAAAGUAGAAGCUAAACTT against Pycrl | inactive: 0.373
97 | CCUUUUUCAUUGGCUGCCCTT against Psors1c2 | inactive: 1.1
98 | GGUGACCUGUAAAUGCAACTT against Trafd1 | inactive: -1.48
99 | GGAUAAACGGGACAAAGCATT against Hcls1 | inactive: -1.78
100 | GGAGAUGCCAAAGUUAUGATT against Cmss1 | inactive: -0.751
101 | CCACUCUGAGAUAUCUGAATT against Olfr1277 | inactive: -0.128
102 | GCGGUUAACAGGCAUGCGATT against Emc2 | inactive: 1.66
103 | CGAUAUUUGGUGUGAAAUGTT against Tmem70 | inactive: -0.609
104 | GGUAUAAAGCAUGAGUAUCTT against Dstn | inactive: 0.547
105 | GGUCCUGUUUCCAAGAGUATT against Cnih1 | inactive: -1.34
106 | GGUACAGUUACGGUCAAAUTT against Zfp952 | inactive: 0.739
107 | GGAGGUCACACAUUCUGUGTT against Itgb7 | inactive: -0.325

Some values from the list:
z-score with GGUAGUGGUACACCUUAAGTT against Ctsc is entered as inactive: -0.481
z-score with CCUGAUCUUAAACAAAGAATT against 2610507B11Rik is entered as inactive: -0.742
z-score with GGAAUUAACAGAGAAGAAATT against Rgs13 is entered as inactive: -0.848
z-score with GGAUUCUGCCCAAUGAGGATT against Inpp5d is entered as inactive: 0.675
z-score with GGGCAUUCUAUUAAACAUGTT against Fam53a is entered as inactive: 1.33
